The supplement of paper PMC4604168 (melanoma cell lines)
The list shows a part of the results. Repeats are few or missing, and single values can be far off.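 Cells were imaged in 1,536-well plates, and nuclei stained with an antibody against cleaved PARP were counted against all DNA-stained nuclei to give the apoptosis fraction. Screening doses were chosen to leave most cells alive, and resting and induced cleaved-PARP levels differ strongly between cell lines.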

Each molecule was assayed on UACC62 (assay: cleaved PARP positive nuclei fraction relative to DMSO control; melanoma cells; higher = more apoptosis). Conditions: library dose: low library concentration; 72 h.
COc1cc([C@@H]2c3cc4c(cc3[C@@H](O[C@@H]3O[C@@H]5CO[C@@H](C)O[C@H]5[C@H](O)[C@H]3O)[C@H]3COC(=O)[C@H]23)OCO4)cc(OC)c1O [etoposide] + Cc1nc(Nc2ncc(C(=O)Nc3c(C)cccc3Cl)s2)cc(N2CCN(CCO)CC2)n1 [dasatanib] (first compound 0.02 µM, partner dose 0.004 µM) was tested, and the “cleaved PARP positive nuclei fraction” value was 269%. For CC[C@]1(O)C[C@H]2CN(CCc3c([nH]c4ccccc34)[C@@](C(=O)OC)(c3cc4c(cc3OC)N(C=O)[C@H]3[C@@](O)(C(=O)OC)[C@H](OC(C)=O)[C@]5(CC)C=CCN6CC[C@]43[C@@H]65)C2)C1 [vincristine] + Cc1ccc(Nc2nccc(N(C)c3ccc4c(C)n(C)nc4c3)n2)cc1S(N)(=O)=O [Pazopanib] (first compound 0.0001 µM, partner dose 0.4 µM), the “cleaved PARP positive nuclei fraction” value was 116%. In the case of O=C(/C=C/c1cccnc1)NCCCCC1CCN(C(=O)c2ccccc2)CC1 + Cn1c(=O)n(-c2ccc(C(C)(C)C#N)cc2)c2c3cc(-c4cnc5ccccc5c4)ccc3ncc21 [NVP-BEZ235] (first compound 0.01 µM, partner dose 0.004 µM), the “cleaved PARP positive nuclei fraction” value is reported as 35.1%. O=C(/C=C/c1cccnc1)NCCCCC1CCN(C(=O)c2ccccc2)CC1 + Cc1cn(-c2cc(NC(=O)c3ccc(C)c(Nc4nccc(-c5cccnc5)n4)c3)cc(C(F)(F)F)c2)cn1 [nilotinib] (first compound 0.01 µM, partner dose 0.2 µM) was tested, and the “cleaved PARP positive nuclei fraction” value was 181%. For O=C(/C=C/c1cccnc1)NCCCCC1CCN(C(=O)c2ccccc2)CC1 + COCC[n+]1c2c(n(Cc3cnccn3)c1C)C(=O)c1ccccc1C2=O [YM155] (first compound 0.01 µM, partner dose 0.0004 µM), the “cleaved PARP positive nuclei fraction” value was 55%. For COc1cc([C@@H]2c3cc4c(cc3[C@@H](O[C@@H]3O[C@@H]5CO[C@@H](C)O[C@H]5[C@H](O)[C@H]3O)[C@H]3COC(=O)[C@H]23)OCO4)cc(OC)c1O [etoposide] + O=c1[nH]nc(Sc2ncc([N+](=O)[O-])s2)n1-c1ccc2c(c1)OCCO2 [BI78D3] (first compound 0.02 µM, partner dose 0.2 µM), the “cleaved PARP positive nuclei fraction” value was 126%. For Cc1cc(Nc2cc(N3CCN(C)CC3)nc(Sc3ccc(NC(=O)C4CC4)cc3)n2)n[nH]1 [Tozasertib] + C[C@@H](Oc1cc(-c2cnn(C3CCNCC3)c2)cnc1N)c1c(Cl)ccc(F)c1Cl [Crizotinib] (first compound 0.006 µM, partner dose 0.2 µM), the “cleaved PARP positive nuclei fraction” value was 82.7%. With O=C(Nc1cc(C(F)(F)F)cc(C(F)(F)F)c1)c1cc(Cl)ccc1O + COCC[n+]1c2c(n(Cc3cnccn3)c1C)C(=O)c1ccccc1C2=O [YM155] (first compound 0.016 µM, partner dose 0.0004 µM) the “cleaved PARP positive nuclei fraction” value was 126%. With O=c1[nH]nc(Sc2ncc([N+](=O)[O-])s2)n1-c1ccc2c(c1)OCCO2 + CCCCCCCCc1ccc(CCC(N)(CO)CO)cc1 [fingolimod] (first compound 0.2 µM, partner dose 2 µM) the “cleaved PARP positive nuclei fraction” value was 91%.

What follows are molecules tested on WM115 in the same assay as above. Conditions: library dose: low library concentration; 72 h.
For Cc1cn(-c2cc(NC(=O)c3ccc(C)c(Nc4nccc(-c5cccnc5)n4)c3)cc(C(F)(F)F)c2)cn1 [nilotinib] + NC(=O)c1ccc(N(C(N)=O)c2c(F)cccc2F)nc1-c1ccc(F)cc1F [VX702] (first compound 0.2 µM, partner dose 0.4 µM), the “cleaved PARP positive nuclei fraction” value was 48.3%. With CC[C@]1(O)C[C@H]2CN(CCc3c([nH]c4ccccc34)[C@@](C(=O)OC)(c3cc4c(cc3OC)N(C=O)[C@H]3[C@@](O)(C(=O)OC)[C@H](OC(C)=O)[C@]5(CC)C=CCN6CC[C@]43[C@@H]65)C2)C1 [vincristine] + C[C@@H](N)c1ccc(C(=O)Nc2ccnc3[nH]ccc23)cc1 [RKI983] (first compound 0.0001 µM, partner dose 0.4 µM) the “cleaved PARP positive nuclei fraction” value was 1230%. With Cc1cn(-c2cc(NC(=O)c3ccc(C)c(Nc4nccc(-c5cccnc5)n4)c3)cc(C(F)(F)F)c2)cn1 [nilotinib] + CC(C)C[C@H](NC(=O)[C@H](Cc1ccccc1)NC(=O)c1cnccn1)B(O)O [Bortezomib] (first compound 0.2 µM, partner dose 0.001 µM) the “cleaved PARP positive nuclei fraction” value was 15.3%. With O=C(Nc1cc(C(F)(F)F)cc(C(F)(F)F)c1)c1cc(Cl)ccc1O + CC(=O)c1c(C)c2cnc(Nc3ccc(N4CCNCC4)cn3)nc2n(C2CCCC2)c1=O [palbociclib] (first compound 0.016 µM, partner dose 0.04 µM) the “cleaved PARP positive nuclei fraction” value was 50.4%. For O=C(Nc1cc(C(F)(F)F)cc(C(F)(F)F)c1)c1cc(Cl)ccc1O + OCc1c[nH]c2ccccc12 [Indole-3-carbinol] (first compound 0.016 µM, partner dose 0.8 µM), the “cleaved PARP positive nuclei fraction” value was 78.4%. In the case of COc1cc([C@@H]2c3cc4c(cc3[C@@H](O[C@@H]3O[C@@H]5CO[C@@H](C)O[C@H]5[C@H](O)[C@H]3O)[C@H]3COC(=O)[C@H]23)OCO4)cc(OC)c1O [etoposide] + CS(=O)(=O)CCNCc1ccc(-c2ccc3ncnc(Nc4ccc(OCc5cccc(F)c5)c(Cl)c4)c3c2)o1 [lapatinib] (first compound 0.02 µM, partner dose 0.8 µM), the “cleaved PARP positive nuclei fraction” value is reported as 38.9%. With CCCCCCCCCCCCCCCCCCOP(=O)([O-])OC1CC[N+](C)(C)CC1 [Perifosine] + NC1(c2ccc(-c3nc4ccn5c(=O)[nH]nc5c4cc3-c3ccccc3)cc2)CCC1 [MK2206] (first compound 0.4 µM, partner dose 0.4 µM) the “cleaved PARP positive nuclei fraction” value was 227%. N#CC[C@H](C1CCCC1)n1cc(-c2ncnc3[nH]ccc23)cn1 [ruxolitinib] + COc1ccc(Cl)c(Nc2nc3ccccc3nc2NS(=O)(=O)c2cccc(NC(=O)C(C)(C)N)c2)c1 [XL147] (first compound 1 µM, partner dose 0.8 µM) was tested, and the “cleaved PARP positive nuclei fraction” value was 114%. For O=C(Nc1cc(C(F)(F)F)cc(C(F)(F)F)c1)c1cc(Cl)ccc1O + COc1ccc(C2=N[C@@H](c3ccc(Cl)cc3)[C@@H](c3ccc(Cl)cc3)N2C(=O)N2CCNC(=O)C2)c(OC(C)C)c1 [Nutlin-3] (first compound 0.016 µM, partner dose 0.1 µM), the “cleaved PARP positive nuclei fraction” value was 29.1%. Cc1cc(Nc2cc(N3CCN(C)CC3)nc(Sc3ccc(NC(=O)C4CC4)cc3)n2)n[nH]1 [Tozasertib] + CC[C@]1(O)C[C@H]2CN(CCc3c([nH]c4ccccc34)[C@@](C(=O)OC)(c3cc4c(cc3OC)N(C=O)[C@H]3[C@@](O)(C(=O)OC)[C@H](OC(C)=O)[C@]5(CC)C=CCN6CC[C@]43[C@@H]65)C2)C1 [vincristine] (first compound 0.006 µM, partner dose 0.0001 µM) was tested, and the “cleaved PARP positive nuclei fraction” value was 728%. For CC[C@]1(O)C[C@H]2CN(CCc3c([nH]c4ccccc34)[C@@](C(=O)OC)(c3cc4c(cc3OC)N(C=O)[C@H]3[C@@](O)(C(=O)OC)[C@H](OC(C)=O)[C@]5(CC)C=CCN6CC[C@]43[C@@H]65)C2)C1 [vincristine] + COc1ccc(Cl)c(Nc2nc3ccccc3nc2NS(=O)(=O)c2cccc(NC(=O)C(C)(C)N)c2)c1 [XL147] (first compound 0.0001 µM, partner dose 0.8 µM), the “cleaved PARP positive nuclei fraction” value was 612%. For Cc1cn(-c2cc(NC(=O)c3ccc(C)c(Nc4nccc(-c5cccnc5)n4)c3)cc(C(F)(F)F)c2)cn1 [nilotinib] + COc1ccc(Cl)c(Nc2nc3ccccc3nc2NS(=O)(=O)c2cccc(NC(=O)C(C)(C)N)c2)c1 [XL147] (first compound 0.2 µM, partner dose 0.8 µM), the “cleaved PARP positive nuclei fraction” value was 60.2%. With Cc1cc(Nc2cc(N3CCN(C)CC3)nc(Sc3ccc(NC(=O)C4CC4)cc3)n2)n[nH]1 [Tozasertib] + Nc1nc(F)nc2c1ncn2[C@@H]1O[C@H](CO)[C@@H](O)[C@@H]1O [fludarabine] (first compound 0.006 µM, partner dose 0.2 µM) the “cleaved PARP positive nuclei fraction” value was 82.3%. For O=C(/C=C/c1cccnc1)NCCCCC1CCN(C(=O)c2ccccc2)CC1 + CCCS(=O)(=O)Nc1ccc(F)c(C(=O)c2c[nH]c3ncc(Cl)cc23)c1F [PLX4720] (first compound 0.01 µM, partner dose 0.08 µM), the “cleaved PARP positive nuclei fraction” value was 66.6%. In the case of O=C(/C=C/c1cccnc1)NCCCCC1CCN(C(=O)c2ccccc2)CC1 + CC(=O)c1c(C)c2cnc(Nc3ccc(N4CCNCC4)cn3)nc2n(C2CCCC2)c1=O [palbociclib] (first compound 0.01 µM, partner dose 0.04 µM), the “cleaved PARP positive nuclei fraction” value is reported as 158%. With CCCCCCCCCCCCCCCCCCOP(=O)([O-])OC1CC[N+](C)(C)CC1 [Perifosine] + CCCCCCCCc1ccc(CCC(N)(CO)CO)cc1 [fingolimod] (first compound 0.4 µM, partner dose 2 µM) the “cleaved PARP positive nuclei fraction” value was 99.1%. In the case of CC[C@]1(O)C[C@H]2CN(CCc3c([nH]c4ccccc34)[C@@](C(=O)OC)(c3cc4c(cc3OC)N(C=O)[C@H]3[C@@](O)(C(=O)OC)[C@H](OC(C)=O)[C@]5(CC)C=CCN6CC[C@]43[C@@H]65)C2)C1 [vincristine] + Nc1ncn([C@H]2C[C@H](O)[C@@H](CO)O2)c(=O)n1 [decitabine] (first compound 0.0001 µM, partner dose 0.1 µM), the “cleaved PARP positive nuclei fraction” value is reported as 1290%. In the case of O=c1[nH]nc(Sc2ncc([N+](=O)[O-])s2)n1-c1ccc2c(c1)OCCO2 + CC1(C)CCC(c2ccc(Cl)cc2)=C(CN2CCN(c3ccc(C(=O)NS(=O)(=O)c4ccc(N[C@H](CCN5CCOCC5)CSc5ccccc5)c(S(=O)(=O)C(F)(F)F)c4)cc3)CC2)C1 [ABT263] (first compound 0.2 µM, partner dose 0.4 µM), the “cleaved PARP positive nuclei fraction” value is reported as 353%.
